Taken from: PubChem BioAssay AID1159584 (Peter MacCallum Cancer Centre, 2016)
Shown is an unselected part of about 18,000 deposited reagents. Further read-outs or replicates are left out here. Not stated in the record: the amount of reagent, the time to read-out.

Aim: 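Knock-downs that harm CDH1-null cells more than parental MCF10A cells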 (primary screen)
Cells: human MCF10A breast epithelial cells, parental and CDH1-null
Knock-down reagent: siRNA against human genes
Read-out: 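ATP luminescence (CellTiter-Glo) viability per line relative to mean mock wells over all plates, and the ratio of CDH1-null to parental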
Scale: CDH1-null / parental viability ratio: higher = CDH1-null cells survive relatively better than parental

CDH1-null / parental viability ratio, by target gene and reagent
SHANK3: SID152151763 0.86
HOXB4: SID152148496 1.19
RAB5C: SID134310228 0.94
CFAP74: SID135624500 1.08; SID152155933 0.94
DCPS: SID135624179 1.23
IL37: SID134312892 1.01
POLD3: SID152148606 0.83
ACO2: SID134314297 1.12
RAB3D: SID135622006 0.85
DCC: SID152156351 1.02
CCL20: SID134312771 0.98
SPRY3: SID134316978 0.67
ZC3H4: SID152151069 0.89
NUDT10: SID152152913 0.58
NAA80: SID134317054 1.08
METTL8: SID152148581 0.91
H3-3A: SID152148823 1.24
BLOC1S6: SID134314366 1.17
WAPL: SID135624554 0.87
GDPD5: SID152152109 2.03
IL25: SID135621475 0.68
UGT2B15: SID135623935 0.95
NDUFS4: SID134323380 1.01
HELQ: SID135622940 0.99
GLP2R: SID135621011 1.4
KIF21A: SID134310693 1.26
NUBP1: SID152148598 0.79
RNF10: SID152150583 0.81
ACAA1: SID135621749 1.17
FAM229B: SID135625416 0.76
ZNF587: SID152153117 1.01
GTF2H2C_2: SID135625604 1.25
ARHGAP32: SID134313099 1.17
USP49: SID134311370 0.98
INHBB: SID152156622 1.16
IZUMO2: SID152149174 0.9
UBE2M: SID152155126 1.13
LRRC45: SID134320861 0.74
ANAPC1: SID135622622 1.28
KRT85: SID152148125 0.89
HTR1D: SID134311074 0.89

7 entries from above, reformatted:
target gene	PubChem SID	CDH1-null / parental viability ratio
FAM229B	SID135625416	0.76
ZNF587	SID152153117	1.01
GTF2H2C_2	SID135625604	1.25
ARHGAP32	SID134313099	1.17
USP49	SID134311370	0.98
INHBB	SID152156622	1.16
IZUMO2	SID152149174	0.9

Next results follow:
CDH1-null / parental viability ratio, by target gene and reagent
CEBPB: SID152152045 0.97
UQCC2: SID152154465 0.98
OR10H4: SID135624429 1.09
PCYT2: SID152152176 0.8
BMP3: SID152149770 0.91
CCDC22: SID152148780 0.92
WWC1: SID134318241 0.96
ADAM15: SID135620836 1.13
SARAF: SID134319328 0.9
VAMP2: SID135622329 1.2
PPP6R3: SID152152181 0.77
CCDC30: SID135625669 1.02
MRPS6: SID134323047 0.93
C6orf120: SID135625271 0.92
TADA2A: SID152155761 1.02
TMEM80: SID152151365 0.85
APBB2: SID152147616 1.45
OR7G3: SID152150168 0.95
GEMIN7: SID135622738 0.81
RCN3: SID152147882 1.25
CCT8L2: SID135623367 1.23
MTAP: SID152149877 1.02
SLC30A9: SID152153501 1.05
SLC26A8: SID134312542 0.98
SH3PXD2A: SID152151081 0.64
SRP54: SID134310755 1.36
